The list shows a part of the results, in another mix than the full data.
System: ML-2
Set-up: species or system AML cell lines (8); Primary HTS, single concentration about 10 uM, Cell Titer Glo viability; log10 luminescence, per cent inhibition relative to cycloheximide control
Conditions: 72 h, relative to cycloheximide control, log10 luminescence; inhibitor

**Q.** With `Cc1cnc(C(=O)NCCc2ccc(S(=O)(=O)NC(=O)NC3CCCCC3)cc2)cn1` [SJ000287188-5, GLIPIZIDE] as the compound, how does the ML-2 %inh read?
**A.** -0.9872%

**Q.** `Cc1cc(NS(=O)(=O)c2ccc(N)cc2)no1` [SJ000285603-4, SULFAMETHOXAZOLE] was tested. Which ML-2 %inh did it give?
**A.** 0.3783%
